Data set [1] concerns the target T1, RNase H truncated (TR, 59-196) (Bacillus halodurans) (UniProt Q9KEI9).
T1 sequence (looked up): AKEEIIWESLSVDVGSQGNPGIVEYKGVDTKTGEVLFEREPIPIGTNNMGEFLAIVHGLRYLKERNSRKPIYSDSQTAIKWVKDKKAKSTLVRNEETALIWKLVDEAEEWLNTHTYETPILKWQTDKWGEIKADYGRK
Put plainly: enzyme reaction in vitro. The conditions noted are these: truncated RNase H (59-196) gave similar results; purified recombinant protein; label: 32P RNA; DNA:RNA hybrid.

Data set [2] concerns the target T2, RNase H (D132N, inactive mutant) (Bacillus halodurans) (UniProt Q9KEI9).
T2 sequence (looked up, limits assumed): T1 sequence (looked up) with D74N
Briefly: structure. The conditions noted are these: purified recombinant protein, protein details: expressed in BL21(DE3) pLysE, PDB 3TWH, DNA:RNA hybrid.

Numbering of substitutions follows the chain as printed. Tags and fusion partners may be left off the protein sequences shown. For part of these data: For at least one entry, the source does not settle the construct or the ends of the probe.

Turning to “ATGTCG / UCGACA [native DNA-N/RNA duplex]”, the “activity on this sequence” value in data set [1] is “active”. Further, the binding result in data set [2] (CITED Nowotny and Yang 2006, PDB 2G8U, 2.70 A, product-type complex, label: 32P RNA) is on record as “binds”.

Consider “GAATCAGGTGTC / GACACCUGAUUC [12-bp RNA/DNA duplex (1ZBI)]”, for which the binding result in data set [2] (CITED Nowotny 2005, PDB 1ZBI, 1.85 A, two RNase H bound per duplex) is on record as “binds”.

Values taken from patent US20160279250, “METHODS FOR STRUCTURAL DETERMINATION OF SELENIUM DERIVATIZED NUCLEIC ACID COMPLEXES” (SeNA Research ,Inc., published 2016).
